Test results as given in PubChem BioAssay AID1487 (National Center for Advancing Translational Sciences (NCATS), 2009).
The other results are listed elsewhere or left out. The main result of the screen is listed elsewhere. These columns were measured beside it and carry no call. Most of these compounds were active or inconclusive in the main read-out, so they are no random draw. The note in brackets gives the kind of curve behind each potency; many fits are weak.

Test: qHTS Assay for Modulators of Lamin A Splicing
Settings: HeLa LMNA splicing GFP/RFP minigene ratio, 48 h
Method in brief: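 Read-out is the ratio of GFP to DsRed2 object intensity, acquired by 488 nm laser-scanning cytometry on HeLa lamin A-EGFP minigene reporter cells. Compound incubation 48 hrs at 37 °C in Opti-MEM with 2% FBS; DMSO 0.5% final.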

[1] = measured here: GFP splicing reporter channel
[2] = measured here: RFP viability control channel

SMILES | AC50 [1] | AC50 [2]
CCc1nnc(NS(=O)(=O)c2ccc(NC(=O)/C=C/c3ccccc3Cl)cc2)s1 | 5.01 µM [rising, full curve] | –
CN(C)S(=O)(=O)c1ccc(NC(=O)C2CCCN(C(=O)c3ccc(Cl)cc3)C2)cc1 (stereo not drawn) | 5.01 µM [rising, partial curve] | 11.2 µM [rising, partial curve]
COc1ccccc1CNC(=O)C(=O)NCC(c1ccco1)S(=O)(=O)c1ccc(C)cc1 (stereo not drawn) | 35.5 µM [falling, single point] | –
C/C(=N\Nc1ncc(Cl)cc1Cl)c1cccs1 | 0.0355 µM [rising, full curve, poor fit] | –
COc1ccc(C(=O)Nc2ccc(C)cc2C(=O)c2ccccc2)c(OC)c1 | 11.2 µM [rising, partial curve, poor fit] | 14.1 µM [rising, partial curve, poor fit]
O=C(NCc1ccccc1Cl)c1ccccc1NC(=O)c1nsc2ccccc12 | 1.12 µM [rising, full curve, poor fit] | –
COc1ccccc1-c1cn(S(=O)(=O)c2ccc(F)cc2)nc1N | – | 12.6 µM [rising, partial curve]
Cc1ccc(NC(=O)CN2C(=O)NC3(CCCc4ccccc43)C2=O)cc1S(=O)(=O)N1CCOCC1 (stereo not drawn) | 5.62 µM [falling, single point] | –
COc1ccc(Br)cc1/C=N/NC(=O)c1cc(Br)ccc1O | 0.0316 µM [falling, full curve, poor fit] | 0.0316 µM [falling, full curve, poor fit]
Cc1ccc(-n2cc(CNCCCN3CCCC3=O)c(-c3ccc(F)cc3)n2)cc1 | 2 µM [falling, partial curve] | –
COc1ccccc1OCCn1c(CO)nc2ccccc21 | 15.8 µM [rising, partial curve] | 15.8 µM [rising, single point]
c1ccc(CNc2ncnc3ccc(-c4ccoc4)cc23)cc1 | 31.6 µM [falling, single point] | 5.62 µM [falling, partial curve, poor fit]
Cc1c([N+](=O)[O-])cc(C(=O)NCc2ccc(F)cc2)cc1[N+](=O)[O-] | – | 0.398 µM [falling, full curve, poor fit]
Cc1sc(NC(=O)c2ccccc2)c(C(c2ccc(Cl)cc2)N2CCN(CCO)CC2)c1C (stereo not drawn) | – | 35.5 µM [falling, single point]
COc1ccc(Oc2ccccc2/C=N/O)cc1 | – | 20 µM [rising, partial curve, poor fit]
COC(=O)c1[nH]c2ccc(C)cc2c1NC(=O)CCN1CCN(Cc2ccc3c(c2)OCO3)CC1 | – | 10 µM [rising, partial curve]
C=C(C)COc1ccc(-c2nc(N)ncc2Oc2ccccc2OC)c(O)c1 | 17.8 µM [rising, partial curve] | 8.91 µM [rising, partial curve, poor fit]
Nc1ncnc2c1nc(Br)n2C1O[C@H]2COP(=O)(O)O[C@@H]2C1O (stereo partly drawn) | 7.08 µM [rising, full curve] | 5.62 µM [rising, single point]

SMILES | AC50 [1] | AC50 [2]
N#Cc1cccc(N=c2ssnc2Cl)c1 | 14.1 µM [falling, partial curve, poor fit] | 35.5 µM [falling, partial curve, poor fit]
O=C(CSc1nnc(C2CC2)n1Cc1ccccc1)N1CCN(S(=O)(=O)c2ccccc2)CC1 | – | 0.00891 µM [falling, full curve, poor fit]
COC(=O)c1ccc(CSc2nnnn2-c2ccc(C)cc2C)o1 | – | 22.4 µM [rising, single point]
O=C(CCC1CCCN(C(=O)c2ccc3c(c2)OCO3)C1)N1CCN(c2ccccn2)CC1 (stereo not drawn) | 0.158 µM [falling, full curve, poor fit] | 0.355 µM [falling, full curve]
CCOc1ccccc1C1C(C(=O)Nc2ccccc2)=C(C)Nc2nc(SCC(=O)c3ccc(C)cc3)nn21 (stereo not drawn) | – | 10 µM [falling, partial curve]
CC1CCCCN1CCCNC(=O)CN1C(=O)c2cccnc2Oc2ccc(Cl)cc21 (stereo not drawn) | – | 12.6 µM [rising, partial curve, poor fit]
O=Cc1c(N2CCN(c3ccccc3)CC2)nc2ccccn2c1=O | 0.00447 µM [falling, full curve, poor fit] | –
O=C(c1ccc(Cl)cc1)N1CCN(CCc2ccncc2)CC1 | 0.112 µM [falling, full curve, poor fit] | –
CS(=O)(=O)N1CCC(c2noc(-c3ccc(C(F)(F)F)cc3)n2)CC1 | – | 12.6 µM [rising, partial curve]
O=C1OCCN1/N=C/c1ccc([N+](=O)[O-])o1 | – | 12.6 µM [rising, partial curve]
CCCC12CN3CCN(CC(C3)/C1=N\NC(=O)c1ccccc1N)C2 | – | 0.126 µM [rising, partial curve]
COc1ccccc1-c1nnc(NC(=O)c2ccc3ncsc3c2)o1 | – | 11.2 µM [rising, partial curve]
Cc1cccc(C(=O)NC(=S)Nc2ccc(Cc3ccncc3)cc2)c1 | 25.1 µM [falling, single point] | 20 µM [falling, partial curve]
Cc1cccc2cc(CN(Cc3cccs3)Cc3nnnn3Cc3ccccc3)c(=O)[nH]c12 | 35.5 µM [rising, single point] | 25.1 µM [rising, single point]
CC(=O)Nc1ccc(S(=O)(=O)N2CCN(C(=O)c3ccccc3F)CC2)cc1 | – | 22.4 µM [rising, single point]
CC1(C)CC2CC(C)(CN2S(=O)(=O)c2ccc(N)cc2)C1 (stereo not drawn) | 35.5 µM [rising, single point] | 35.5 µM [rising, single point]
O=C(CN1CCOCC1)N1CCc2ccccc2C(c2ccccc2)C1 (stereo not drawn) | 14.1 µM [rising, partial curve, poor fit] | 20 µM [rising, single point]

In the list so far, these have an NH in an aromatic ring.
SMILES | AC50 [1] | AC50 [2]
COC(=O)c1[nH]c2ccc(C)cc2c1NC(=O)CCN1CCN(Cc2ccc3c(c2)OCO3)CC1 | – | 10 µM [rising, partial curve]
Cc1cccc2cc(CN(Cc3cccs3)Cc3nnnn3Cc3ccccc3)c(=O)[nH]c12 | 35.5 µM [rising, single point] | 25.1 µM [rising, single point]
